Results on two molecules are retold here after publication PMC5380948.

Protein sequences, listed by entry. Tags and fused reporters are not part of them.
UniProt Q04206: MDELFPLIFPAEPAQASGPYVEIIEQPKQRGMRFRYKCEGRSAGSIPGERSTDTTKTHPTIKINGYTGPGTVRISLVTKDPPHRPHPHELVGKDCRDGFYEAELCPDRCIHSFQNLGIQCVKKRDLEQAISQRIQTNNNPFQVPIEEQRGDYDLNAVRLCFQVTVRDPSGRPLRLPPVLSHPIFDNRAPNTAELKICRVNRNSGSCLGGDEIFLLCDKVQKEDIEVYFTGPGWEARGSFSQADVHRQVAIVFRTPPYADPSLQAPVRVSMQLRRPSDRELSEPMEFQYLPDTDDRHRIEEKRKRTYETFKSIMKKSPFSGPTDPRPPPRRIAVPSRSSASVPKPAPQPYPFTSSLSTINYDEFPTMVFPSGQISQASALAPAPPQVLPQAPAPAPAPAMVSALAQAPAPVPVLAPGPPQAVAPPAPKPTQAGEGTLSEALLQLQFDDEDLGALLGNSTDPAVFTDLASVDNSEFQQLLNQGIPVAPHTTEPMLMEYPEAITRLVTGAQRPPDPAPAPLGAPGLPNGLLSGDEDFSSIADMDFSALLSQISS

In assay [1] the target is T1, c-Myc-tagged MKRN2 (makorin ring finger protein 2) (mouse) (UniProt Q9ERV1).
T1 sequence: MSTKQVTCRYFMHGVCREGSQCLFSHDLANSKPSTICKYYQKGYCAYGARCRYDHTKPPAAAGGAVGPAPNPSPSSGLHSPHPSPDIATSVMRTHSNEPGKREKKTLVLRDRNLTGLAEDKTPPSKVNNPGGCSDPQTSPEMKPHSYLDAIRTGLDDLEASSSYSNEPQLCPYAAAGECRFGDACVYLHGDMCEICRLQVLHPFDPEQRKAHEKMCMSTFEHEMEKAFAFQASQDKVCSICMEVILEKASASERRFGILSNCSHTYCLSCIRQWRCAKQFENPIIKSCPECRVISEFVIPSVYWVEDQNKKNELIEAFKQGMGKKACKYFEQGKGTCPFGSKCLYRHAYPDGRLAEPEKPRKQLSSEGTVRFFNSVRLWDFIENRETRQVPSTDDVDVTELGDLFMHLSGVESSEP
The experiment in a line: co-IP; 293T cells co-transfected; lysed in 0.5% NP-40, 250 mM NaCl, 10 mM Tris pH 8.0; precipitated with anti-c-Myc antibody-conjugated agarose, washed four times; immunoblot with anti-His or anti-FLAG. For orientation: Immunoblotting shows a protein as a band on a membrane.

Assay [2] concerns the target T1, c-Myc-tagged MKRN2 (makorin ring finger protein 2) (mouse). The assay is described as above. The source holds these as a separate data set.

Read-outs that look alike come from different tables or passages of the source. Results are given in words; binding and its absence hold for the method and conditions named. Binding seen in cells or lysates may run through a third protein. Some entries that bind do so weakly or less than the wild type. Where a sequence is shown, tags or fusion partners need not be part of it.

Take “FLAG-tagged p65 subunit of NF-κB (from UniProt Q04206 1-551)”: the binding entry in assay [1] is on record as “binds”.

B1: His-tagged PDLIM2 (protein, UniProt Q8R1G6 1-349)
chain: MALTVDVAGPAPWGFRISGGRDFHTPIIVTKVTERGKAEAADLRPGDIIVAINGQSAENMLHAEAQSKIRQSASPLRLQLDRSQTASPGQTNGEGSLEVLATRFQGSLRTHRDSQSSQRSACFSPVSLSPRPCSPFSTPPPTSPVALSKEDMIGCSFQSLTHSPGLAAAHHLTYPGHPTSQQAGHSSPSDSAVRVLLHSPGRPSSPRFSSLDLEEDSEVFKMLQENRQGRAAPRQSSSFRLLQEALEAEERGGTPAFVPSSLSSQASLPTSRALATPPKLHTCEKCSVNISNQAVRIQEGRYRHPGCYTCADCGLNLKMRGHFWVGNELYCEKHARQRYSMPGTLNSRA
Turning to B1, in assay [2], the binding result is “binds”.
